The target in the experiment is cyclin-dependent kinase 9 (CDK9), isoform not told apart (mouse (endogenous in primary cortical neurons, hippocampus and N2a cells)) (UniProt Q99J95). Put plainly: co-IP; primary cortical neuron lysate (mouse); HEXIM1, CDK9 or IgG antibody on protein A and G Dynabeads, 1 h at 4 °C; lysis buffer 150 mM NaCl, 50 mM Tris-HCl, 1% NP-40, 5 mM EDTA; Western blot. (In general: A western blot detects proteins with antibodies after separation by electrophoresis.)

The chains behind the UniProt entries cited, without tags or fusion partners.
UniProt Q99J95: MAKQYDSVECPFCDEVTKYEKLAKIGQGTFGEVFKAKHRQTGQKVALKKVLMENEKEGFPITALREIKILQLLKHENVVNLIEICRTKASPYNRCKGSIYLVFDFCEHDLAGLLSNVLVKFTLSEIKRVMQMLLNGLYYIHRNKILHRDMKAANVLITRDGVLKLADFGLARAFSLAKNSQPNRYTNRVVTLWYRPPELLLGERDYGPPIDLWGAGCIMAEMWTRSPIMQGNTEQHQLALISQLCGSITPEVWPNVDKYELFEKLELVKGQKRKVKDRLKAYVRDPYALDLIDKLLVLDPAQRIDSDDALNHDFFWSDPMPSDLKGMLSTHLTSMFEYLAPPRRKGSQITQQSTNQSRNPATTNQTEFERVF
UniProt Q9QWV9: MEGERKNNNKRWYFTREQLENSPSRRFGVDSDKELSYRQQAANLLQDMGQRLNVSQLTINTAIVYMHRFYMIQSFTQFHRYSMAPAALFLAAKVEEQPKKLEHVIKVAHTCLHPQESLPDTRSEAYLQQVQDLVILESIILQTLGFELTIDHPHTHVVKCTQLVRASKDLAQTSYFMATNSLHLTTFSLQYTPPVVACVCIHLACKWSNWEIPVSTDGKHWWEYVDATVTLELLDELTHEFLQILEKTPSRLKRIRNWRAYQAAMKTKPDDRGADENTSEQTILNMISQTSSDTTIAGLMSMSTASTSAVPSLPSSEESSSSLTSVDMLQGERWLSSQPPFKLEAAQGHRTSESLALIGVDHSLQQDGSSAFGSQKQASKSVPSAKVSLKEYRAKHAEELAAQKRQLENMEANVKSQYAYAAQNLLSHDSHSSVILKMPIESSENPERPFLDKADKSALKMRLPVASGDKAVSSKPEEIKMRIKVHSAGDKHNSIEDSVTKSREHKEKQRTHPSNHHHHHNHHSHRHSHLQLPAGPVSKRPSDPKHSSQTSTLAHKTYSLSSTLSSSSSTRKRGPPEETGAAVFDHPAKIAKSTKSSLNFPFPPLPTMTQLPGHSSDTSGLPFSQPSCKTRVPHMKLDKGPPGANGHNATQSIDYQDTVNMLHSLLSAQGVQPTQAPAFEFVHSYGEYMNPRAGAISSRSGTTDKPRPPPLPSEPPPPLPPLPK

Results on one substance are retold here after publication PMC13049930.

Results are given in words; binding and its absence hold for the method and conditions named. In cells and extracts the contact can be indirect. Some entries that bind do so weakly or less than the wild type.

As to “Cyclin T1 (CCNT1) (from UniProt Q9QWV9 1-724)”, the binding result is given as “binds”.
